Read-outs that look alike come from different tables or passages of the source. Results are given in words; binding and its absence hold for the method and conditions named. In cells and extracts the contact can be indirect. Some binding calls cover weakened binding; strength is not graded here. Values belong to the molecule of their own block, whether it stands above or below them.
Columns and labels:
[1] = molecular target: T1, receptor-interacting protein 3 (RIP3) (rat (endogenous in CTX TNA2 astrocytes)) (UniProt Q9Z2P5); assay: co-IP; cell lysates in IP buffer; anti-RIP3 antibody (1 ug) or normal IgG for 2 h at 4 °C, protein A/G agarose beads overnight at 4 °C; partners detected by immunoblot
T1 sequence: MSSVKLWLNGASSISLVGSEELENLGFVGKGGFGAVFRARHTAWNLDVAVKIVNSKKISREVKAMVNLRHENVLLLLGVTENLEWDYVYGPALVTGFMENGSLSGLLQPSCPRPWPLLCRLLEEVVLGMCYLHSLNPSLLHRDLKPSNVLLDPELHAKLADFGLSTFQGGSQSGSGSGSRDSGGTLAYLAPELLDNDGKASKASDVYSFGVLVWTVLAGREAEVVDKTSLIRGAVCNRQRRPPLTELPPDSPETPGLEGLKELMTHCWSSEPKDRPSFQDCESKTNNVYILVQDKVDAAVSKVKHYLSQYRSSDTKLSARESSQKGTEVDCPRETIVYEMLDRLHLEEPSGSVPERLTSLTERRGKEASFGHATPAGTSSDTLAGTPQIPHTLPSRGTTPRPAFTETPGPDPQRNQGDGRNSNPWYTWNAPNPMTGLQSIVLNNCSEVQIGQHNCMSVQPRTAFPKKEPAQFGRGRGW

By UniProt entry, the sequences of proteins in these tests, tags left out.
UniProt Q9R0I6: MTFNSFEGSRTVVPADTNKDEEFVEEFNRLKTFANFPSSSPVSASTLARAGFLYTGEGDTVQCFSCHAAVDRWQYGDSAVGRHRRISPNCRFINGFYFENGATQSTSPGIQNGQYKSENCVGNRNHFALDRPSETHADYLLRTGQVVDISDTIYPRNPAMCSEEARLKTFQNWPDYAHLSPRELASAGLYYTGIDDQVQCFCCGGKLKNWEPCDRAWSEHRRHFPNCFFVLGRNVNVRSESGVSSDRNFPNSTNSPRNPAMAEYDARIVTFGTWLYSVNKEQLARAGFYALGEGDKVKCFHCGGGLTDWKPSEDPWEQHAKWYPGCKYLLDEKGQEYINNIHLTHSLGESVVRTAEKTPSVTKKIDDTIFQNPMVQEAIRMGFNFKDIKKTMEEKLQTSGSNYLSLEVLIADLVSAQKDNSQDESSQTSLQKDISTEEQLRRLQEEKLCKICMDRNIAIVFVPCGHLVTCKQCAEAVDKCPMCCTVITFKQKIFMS

[2] = molecular target: T1, receptor-interacting protein 3 (RIP3) (rat (endogenous in CTX TNA2 astrocytes)); assay: as above; remark: listed apart in the source

binding [1]: no binding
Molecule: XIAP (from UniProt Q9R0I6 1-496)

binding [1]: binds
Molecule: p62 (from UniProt O08623 1-439)

binding [2]: no binding
B1: RAG1 (protein, UniProt G3V6K9 1-1040)
chain: MAVPLPSTLRLSSAPDEIQHPHIKFSEWKFKLFRVRSFEKAPEEAQKEKDSSEGKPCLEQSPVVLDKPGGQNSVLTQRALKLHPKFSKKFHVDGKSSDKAIHQARLRHFCRICGNHFKSDGHNRRYPVHGPVDAKTQSLFRKKEKRVTSWPDLIARVFRIDVKSDVDSIHPTEFCHNCWSIMHRKFGSAHSQVYCPRNVTVEWHPHTPSCDICFTAHRGLKRKRHQPNVQLSKKLKTVLNHARRDRRKRTQARVSSKEVMKKISNCSKIHLSTKLLAVDFPAHFVKSISCQICEHILADPVETTCKHLFCRICILRCLKVMGSYCPSCRYPCFPTDLQSPVKSFLSILNSLMVKCPAQECNEEVSLEKYNHHVSSHKESKETLVHINKGGRPRQHLLSLTRRAQKHRLRELKIQVKEFADKEEGGDVKSVCLTLFLLALRARNEHRQADELEAIMQGRGSGLQPAVCLAIRVNTFLSCSQYHKMYRTVKAITGRQIFQPLHALRNAEKVLLPGYHPFEWQPPLKNVSSRTDVGIIDGLSGLASSVDEYPVDTIAKRFRYDSALVSALMDMEEDILDGMRSQDLDDYVSGPFTVVVKESCDGMGDVSEKHGSGPAVPEKAVRFSFTVMRVTVEHGSQNVKIFEEPKPNSELCCKPLCLMLADESDHETLTAILSPLIAEREAMKSSELLLEMGGIPRTFKFIFRGTGYDEKLVREVEGLEASGSVYICTLCDATRLEASQNLVFHSITRSHAENLQRYEVWRSNPYHESVEELRDRVKGVSAKPFIETVPSIDALHCDIGNAAEFYKIFQLEIGEVYKNPNASKEERKRWQATLDKHLRKRMNLKPIMRMNGNFARKLMTQETVDAVCELIPSEERHEALRELMDLYLKMKPVWRSSCPAKECPESLCQYSFNSQRFAELLSTKFKYRYEGKITNYFHKTLAHVPEIIERDGSIGAWASEGNESGNKLFRRFRKMNARQSKCYEMEDVLKHHWLYTSKYLQKFMNAHNALKNSGFTMNSKETLGDSLDIEDSLESQDSMEF

Reference: paper PMC11787194
